Results taken from patent US20140378536A1 (VALTED, published 2014).

Target: T1, MYC-tagged parkin, wild type, full-length (pRK5-MYC) (UniProt O60260 1-465)
T1 construct: Full-length construct; The truncation limit 220-465 fits the 465-residue human protein; also called MYC-Parkin; WT Parkin; not shown: MYC tag of vector pRK5-MYC
Assay: co-immunoprecipitation of FLAG-tagged PARIS deletion fragments with full-length parkin (FIG. 18)
Method: For co-immunoprecipitation from cell cultures, SH-SY5Y cells were transfected with 2 μg of each plasmid, unless otherwise indicated.

binding result: no binding
B1: FLAG-tagged PARIS truncation, N-terminal domain of PARIS (other)
chain: MAEAVAAPISPWTMAATIQAMERKIESQAARLLSLEGRTGMAEKKLADCEKTAVEFGNQLEGKWAVLGTLLQEYGLLQRRLENVENLLRNRNFWILRLPPGSKGESPKEWGKLEDWQKELYKHVMRGNYETLVSLDYAISKPEVLSQIEQGKEPCNWRRPGPKIPDVPVDPSPGSGPPVPAPDLLMQIKQEGELQLQEQQALGVEAWAAGQPDIGEEPWGLSQLDSGAGDISTDATSGVHSNFSTTIPPTSWQTDLPPHHPSSACSDGTLKLNTAASTEDVKIVIKTEVQEEEVVATPVHPTDLEAHGTLFGPGQATRFFPS
notes: Two N-terminal truncations were made (1-322 and 1-164); not shown: N-terminal FLAG tag of vector pCMV-Tag2A
